Patent US20200022995A1, “Novel Immunodulating Small Molecules” (AyuVis Research, Inc., priority 2018, published 2020)
For at least one compound, name, drawing or mass did not settle the structure.

The chains behind the UniProt entries cited, without tags or fusion partners. Residues count along the entry.
UniProt O00206, 24-839: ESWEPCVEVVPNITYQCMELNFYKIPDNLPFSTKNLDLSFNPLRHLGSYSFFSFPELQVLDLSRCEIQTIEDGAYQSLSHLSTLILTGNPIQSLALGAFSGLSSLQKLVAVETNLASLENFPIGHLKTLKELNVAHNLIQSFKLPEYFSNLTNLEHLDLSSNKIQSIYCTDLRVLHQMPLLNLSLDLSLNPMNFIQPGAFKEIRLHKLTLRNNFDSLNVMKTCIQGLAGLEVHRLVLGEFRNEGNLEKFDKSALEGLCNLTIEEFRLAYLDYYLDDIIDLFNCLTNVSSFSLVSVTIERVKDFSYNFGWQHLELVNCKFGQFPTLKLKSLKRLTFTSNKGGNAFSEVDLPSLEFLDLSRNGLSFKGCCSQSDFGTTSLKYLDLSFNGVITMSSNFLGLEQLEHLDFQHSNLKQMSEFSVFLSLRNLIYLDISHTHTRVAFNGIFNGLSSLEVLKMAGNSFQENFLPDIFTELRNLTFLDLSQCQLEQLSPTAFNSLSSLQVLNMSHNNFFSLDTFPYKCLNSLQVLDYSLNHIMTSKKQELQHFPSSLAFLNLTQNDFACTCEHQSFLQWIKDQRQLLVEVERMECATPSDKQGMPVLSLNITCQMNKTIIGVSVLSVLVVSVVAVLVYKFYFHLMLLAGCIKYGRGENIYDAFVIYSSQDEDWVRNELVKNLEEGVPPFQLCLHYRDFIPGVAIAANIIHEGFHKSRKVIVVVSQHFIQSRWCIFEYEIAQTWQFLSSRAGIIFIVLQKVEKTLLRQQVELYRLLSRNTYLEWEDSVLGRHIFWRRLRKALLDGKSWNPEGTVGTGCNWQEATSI

Target: TLR4 (Homo sapiens, UniProt O00206)
Test: TLR4 inhibitory and activating activity in THP-1 cells
Format: cell-based
Set-up: endogenous in cells; host or cells: THP-1 monocytes, PMA-stimulated
Conditions: one symbol printed for 1-10 and 75-100 μM; concentration not resolvable

In the case of `CC(=O)N[C@H]1[C@H](Oc2ccc3c(C)cc(=O)oc3c2)O[C@H](COS(=O)(=O)O)[C@@H](O)[C@@H]1O` [Compound 30], the “% activation over control TLR4” value was “+” and the “% inhibition over control TLR4” value was “+”.
